{"source": "patent US8956824B2", "about": "“Methods for identifying allosteric modulators of ship polypeptides” (British Columbia Cancer Agency Branch, priority 2006, dated 2015)", "key": {"J16 cells": {"tested_on": "J16 cells", "experiment": "Inositol phospholipid analysis in LPS-stimulated macrophages", "assay_type": "cell-based, mouse", "protocol": "Inositol phospholipid analysis. J16 cells, a macrophage cell line immortalized from C57B16 mice, were grown in 10% FCS in IMDM supplemented with 10 μM 2-mercaptoethanol, 150 μM monothioglycolate (MTG) and 1 mM glutamine. 5×10^6 cells were plated the night before in 10 cm tissue culture dishes. The next day, cells were washed three times with phosphate-free medium before being starved in phosphate free RPMI (MP Biomedicals, Irvine, Calif.) supplemented with 10% dialyzed FCS (Invitrogen, Burlington, Ont) and 1% RPMI for 2 hrs. Cells were then labeled with 1.0 mCi of ^32P-labeled orthophosphate (MP Biomedicals, Irvine, Calif.)/ml for 2 hrs at 37° C. Cells were pretreated for 30 mM with AQX-016A, LY294004 or vehicle prior to stimulation with LPS (50 ng/ml) for 15 min. Extraction of inositol phospholipids and HPLC analysis of deacylated lipids were performed as described previously (16). The amount of radioactivity contained in the elution peak for each lipid (two to five fractions) was summed to give the total counts for each lipid, and data were normalized to the first 60 fractions to adjust for fluctuations in total lipid labeling and recovery between samples. Data are expressed as the mean+/− the SEM of three independent replicates for each stimulation condition and the experiment was repeated twice."}, "[1]": {"tested_on": "SHIP1+/+ and SHIP1−/− BMmφs", "experiment": "LPS-stimulated TNFα production in BMmφs", "assay_type": "cell-based, mouse", "details": "30 min pretreatment, 10 ng/mL LPS, ELISA", "protocol": "Production of SHIP+/+ and SHIP-/- BMMCs and BMnφs. […] LPS stimulation of BMmφs. For the analysis of LPS-stimulated TNFα production, 2 ×10^5 cells were plated the night before in 24 well plates in BMmφp medium. […] Data are expressed as the mean +/- SEM of triplicates and experiments were repeated 3 times. For analysis of intracellular signaling, 2×10^6 cells were plated the night before in 6 cm tissue culture plates. […] Cells were washed with 4° C. PBS and resuspended in lysis buffer (50 mM Hepes, 2 mM EDTA, 1mM NaVO4 , 100 mM NaF, 50 mM NaPPi and 1%NP4O) supplemented with COMPLETETM Protease Inhibitor Cocktail (Roche, Montreal, Canada). Lysates were rocked at 4° C. for 30 min and clarified by centrifuging 20 min at 12000×g. Lysates were then made 1× in Laemmli's buffer, boiled 2 min and loaded onto 7.5% SDS polyacrylamide […]. Immunoblot analysis for phospho PKB (Cell Signalling, Mississauga, Ont), SHIP1 and actin (Santa Cruz, Santa Cruz, Calif.) were carried out as described previously (18). Results are representative of 3 independent experiments."}, "[2]": {"tested_on": "SHIP1+/+ and SHIP1−/− BMMCs", "experiment": "IgE+antigen-induced calcium flux in BMMCs", "assay_type": "cell-based, mouse", "details": "30 min pretreatment, DNP-HSA stimulation", "protocol": "Production of SHIP+/+ and SHIP−/− BMMCs and BMnφs. To obtain BMMCs, bone marrow cells were aspirated from 4 to 8 week old C57B16×129Sv mixed background mice and SHIP1+/+ and SHIP1−/− BMMCs prepared as described previously (17). After 8 weeks in IMDM+15% FCS (StemCell Technologies, Vancouver, Canada)+150 μM MTG+30 ng/ml IL-3 (BMMC medium) more than 99% of the cells were c-kit and FcεR1 positive as determined by flow cytometry with FITC-labeled anti-c-kit (BD Pharmingen, Mississauga, Canada) and FITC-labeled IgE (anti-Epo), respectively. BMmφs from SHIP1+/+ and SHIP1−/− mice were obtained and maintained in IMDM supplemented with 10% FCS, 150 μM MTG, 2% C127 cell conditioned medium as a source of macrophage colony stimulating factor (MCSF) (BMmφ medium).\nStimulation of BMMCs by FcεR1 crosslinking. SHIP1+/+ and SHIP1−/− BMMCs were pre-loaded overnight in BMMC medium lacking IL-3 with 0.1 μg/ml anti-DNP IgE (SPE-7, Sigma, Oakville, Ont). […] Calcium influx was then monitored by spectrofluorometry as described previously (19). […] Total cell lysates were then prepared and analyzed for phospho-PKB, phospho-p38MAPK, phospho-MAPK, Grb-2 (Cell Signalling, Mississauga, Ont) and SHIP1 (18) by immunoblot analysis as described previously (20). […]"}, "LNCaP cells": {"tested_on": "LNCaP cells", "experiment": "PKB phosphorylation in LNCaP cells", "assay_type": "cell-based", "details": "30 min treatment; cells do not express SHIP1", "protocol": "The non-hemopoietic, prostate cancer LnCAP cell line was treated with AQX-016A or LY294002 for 30 min and cell lysates analyzed for phospho-PKB-Thr 308 or phospho-PKB 473 as described in the Examples. AQX-016A (Molecular Weight 328.24) concentration is indicated in μM."}}, "note": "“Also recorded” adds a separate entry of the source. At least one compound was matched to its structure with a doubt left.", "data": [{"compound": "O=c1cc(N2CCOCC2)oc2c(-c3ccccc3)cccc12", "note": "[LY294002, reference compound]", "values": [{"measurement": "PIP3 levels after LPS stimulation", "setting": "J16 cells; 30 min pretreatment with 5 mg/mL AQX-016A or 25 μM LY294002, LPS 15 min", "value": "diminished PIP3 levels"}, {"measurement": "PI-3,4-P2 levels after LPS stimulation", "setting": "J16 cells; 30 min pretreatment with AQX-016A or 25 μM LY294002, LPS 15 min", "value": "without a corresponding increase"}, {"measurement": "LPS-stimulated TNFα production, SHIP1+/+ vs SHIP1−/− macrophages", "setting": "[1]", "value": "inhibited both SHIP+/+ and SHIP−/− macrophages and mast cells to the same extent; also recorded: inhibits TNFα expression in both SHIP1^+/+ and SHIP1^−/− macrophages"}, {"measurement": "IgE+antigen-induced calcium entry, SHIP1+/+ vs SHIP1−/− mast cells", "setting": "[2]", "value": "inhibited both SHIP+/+ and SHIP−/− macrophages and mast cells to the same extent; also recorded: inhibits calcium flux in both SHIP1^+/+ and SHIP1^−/− mast cells"}, {"measurement": "PKB phosphorylation in LNCaP cells", "setting": "LNCaP cells", "value": "efficiently inhibited PKB phosphorylation; also recorded: inhibits PKB phosphorylation"}]}]}
